Out of some 320,000 compounds screened, about 22,000 (6.9%) were called active. The shares of active, inactive and inconclusive entries below differ from those in the screen. Calls come from the whole dose curve; as a rule, active = well fitted inhibition curve with a large enough effect; inconclusive = small, poorly fitted or top-dose-only effect, or another doubt; inactive = no such curve, though single readings can be large or run the other way. Where the call is inconclusive, the potency comes from a doubtful curve fit.
experiment: Primary qHTS for delayed death inhibitors of the malarial parasite plastid, 96 hour incubation; settings: P. falciparum luciferase reporter growth; series mostly up to 28.7 µM; activity change, negative = inhibition: at the top concentration
Method in brief: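 Parasite growth measured via integrated firefly luciferase reporter in P. falciparum. Infected erythrocytes at 2% hematocrit, 0.05% parasitemia final were treated 96 hours at 37 C under 5% CO2, and luminescence was read.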
% is set by controls: 0 for no effect and ±100 for the full control effect; potency is the fitted concentration of half-maximal effect.

SMILES	Potency	activity change, negative = inhibition
Cc1cccc(OCCSc2nnc(-c3ccoc3C)n2C)c1	active: 11.7 µM	–
COc1ccc(C(=O)N=c2sc3ccccc3n2C)cc1OC	–	inactive: 17.2%
Cc1cc(C)c(NC(=O)c2ccccc2C(=O)c2ccccc2)c(C)c1	–	inactive: -19.6%
COCCNC(=O)c1ccc2c(c1)C(=O)c1ccccc1-2	inconclusive: 11.7 µM [inhibitor, partial curve, poor fit]	–
O=C(O)c1sc2cc(C(F)(F)F)cnc2c1-c1cccs1	inconclusive: 3.29 µM [inhibitor, full curve, poor fit]	–
O=C1CC(NS(=O)(=O)c2ccc([N+](=O)[O-])cc2)CN1c1cccc(F)c1 (stereo not drawn)	–	inactive: 6.2%
O=C(CSc1nnc(-c2ccc3c(c2)OCCO3)o1)NC1CCCCC1	inconclusive: 3.29 µM [inhibitor, single point]	–
CCOC(=O)C1CC=C(Cl)CC1C(=O)Nc1nccs1 (stereo not drawn)	inconclusive: 0.465 µM [inhibitor, partial curve, poor fit]	–
Cc1cc(NC(=O)CCl)nn1C	active: 10.4 µM	–
CCOc1cc(C(c2c(C)[nH][nH]c2=O)c2c(C)[nH][nH]c2=O)cc([N+](=O)[O-])c1O	–	inactive: 26.7%
COc1ccc(N(CC(=O)NCC2CCCO2)S(=O)(=O)c2ccccc2)cc1OC (stereo not drawn)	–	inactive: -11.1%
CCc1noc(C)c1C(=O)OC(C)C(=O)c1c(C)[nH]c2ccccc12 (stereo not drawn)	inconclusive: 10.4 µM [inhibitor, single point]	–
CCOc1ccc(CCNC(=O)CSc2ncn[nH]2)cc1OCC	inconclusive: 13.1 µM [inhibitor, partial curve, poor fit]	–
Cc1nc2ccccc2nc(C)c1=NOCC(=O)N(c1ccccc1)C(C)C	inconclusive: 9.28 µM [inhibitor, single point]	–
Cc1cc(C)c2nc(NC(=O)C3CC(=O)N(Cc4ccco4)C3)sc2c1 (stereo not drawn)	–	inactive: -10.3%
O=C(CNC(=O)c1cccs1)Nc1cccc(S(=O)(=O)N2CCOCC2)c1	–	inactive: 2.45%
S=C1NCCOCCNC(=S)NCCOCCOCCN1	–	inactive: -1.59%
COc1ccc(C=NCCCN2CCOCC2)cc1	–	inactive: -18.7%
CN(C)c1ccc(/C=N/n2c(-c3ccccc3Br)n[nH]c2=S)cc1	–	inactive: 23.2%
CC(C)c1ccc(/C=C2\CC/C(=C\C=N\N(C)C)C2=O)cc1	inconclusive: 18.5 µM [inhibitor, single point]	–
O=C1CCCN1CCCNc1nc2c(S(=O)(=O)c3ccc(Br)cc3)nnn2c2ccccc12	inconclusive: 18.5 µM [inhibitor, single point]	–
CCOC(=O)Oc1ccc2oc(=O)cc(C)c2c1	–	inactive: 244%
O=C(Nc1ccc(Cl)cc1)C1C2C=CC3(O2)C1C(=O)N(CCN1CCCCC1)C3C(=O)NC1CCCCC1 (stereo not drawn)	inconclusive: 11.7 µM [inhibitor, single point]	–

Quoted from the listing:
`O=C1CC(NS(=O)(=O)c2ccc([N+](=O)[O-])cc2)CN1c1cccc(F)c1` (stereo not drawn) | activity change, negative = inhibition: inactive: 6.2%
`Cc1cc(C)c2nc(NC(=O)C3CC(=O)N(Cc4ccco4)C3)sc2c1` (stereo not drawn) | activity change, negative = inhibition: inactive: -10.3%

From PubChem BioAssay AID504834 (National Center for Advancing Translational Sciences (NCATS), 2011)
